Measurements: PubChem BioAssay AID1439 (NMMLSC, 2008)
The whole screen tested about 220,000 compounds, of which about 770 (0.35%) were called active. Inconclusive results, whose numbers are uncertain, are shown with a selection of clear calls. Rule as the data show it: active = binding response below about 49% or above about 150%; inconclusive = no clear call, values can overlap the other calls; inactive = in between.

Amino acid sequences for entries named in this document (tags omitted).
UniProt P09471, whole entry, looked up: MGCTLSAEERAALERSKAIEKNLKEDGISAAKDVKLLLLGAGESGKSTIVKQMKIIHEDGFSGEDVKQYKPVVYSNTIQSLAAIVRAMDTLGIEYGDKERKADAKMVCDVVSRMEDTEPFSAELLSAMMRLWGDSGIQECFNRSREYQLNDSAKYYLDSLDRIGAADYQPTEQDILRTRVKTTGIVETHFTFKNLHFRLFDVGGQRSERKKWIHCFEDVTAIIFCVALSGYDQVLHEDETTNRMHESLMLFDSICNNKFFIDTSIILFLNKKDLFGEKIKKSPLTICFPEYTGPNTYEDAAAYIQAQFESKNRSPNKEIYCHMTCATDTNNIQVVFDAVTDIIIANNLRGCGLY

What follows are molecules tested against Guanine nucleotide-binding protein G(o) subunit alpha (Homo sapiens) (UniProt P09471) (assay: RGS7-Galphao binding modulators, primary screen, biochemical, multiplexed bead flow cytometry (AID 1439;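 also: fluorescent Galphao held in activated GDP-AlF4 state binding bead-coupled RGS7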)). Conditions: at 10 µM, actives lie on both sides.
For `CNC(=O)c1cc(C(=O)c2c(Cl)cccc2Cl)c[nH]1`, the binding response (% of control) was inconclusive: 106%. For `CCc1ccc(Nc2ncc3c(n2)CC(C)(C)CC3=O)cc1`, the binding response (% of control) was inconclusive: 70.1%. In the case of `OC[C@H](O)[C@H](O)[C@@H](O)[C@@H](O)[C@@H]1SC(c2ccccc2)=NN1c1ccccc1`, the binding response (% of control) is reported as inconclusive: 132%. `COC(=O)C1=C(C(=O)OC)[C@@H]2N(C)c3ccccc3[C@@]23C[C@@H](C(=O)OC)N(C(=O)COCc2ccccc2)C3=N1` was tested, and the binding response (% of control) was inconclusive: 98.7%. In the case of `Cc1onc(-c2c(Cl)cccc2Cl)c1C(=O)N=C(N)N1CCCC1`, the binding response (% of control) is reported as inconclusive: 123%. With `CCOC(=O)c1cc(C)nc(Sc2ccc(C)cc2)c1C#N` the binding response (% of control) was inconclusive: 122%. `CCCCN(CC)CCCNC(=S)Nc1ccc2nc(N3CCN(C)CC3)cc(C)c2c1` was tested, and the binding response (% of control) was inconclusive: 94.5%. `CN(C(=O)CSc1nnnn1-c1ccccc1)C1CCS(=O)(=O)C1` (stereo unspecified) was tested, and the binding response (% of control) was inactive: 97.4%. For `C/C(=N/O)c1ccc(Oc2cnccn2)cc1`, the binding response (% of control) was inconclusive: 113%. `COc1ccc2[nH]c(=O)c(NC(N)=S)nc2c1` was tested, and the binding response (% of control) was inactive: 93%. For `CC(=O)CSc1ncnc2scc(-c3ccc(F)cc3)c12`, the binding response (% of control) was inconclusive: 124%. With `CCOC(=O)C(=CNc1ccc(Cl)cn1)C(=O)OCC` the binding response (% of control) was inconclusive: 86.1%. `Cc1cc(C(=O)Nc2nccs2)c2cc(F)ccc2n1` was tested, and the binding response (% of control) was inconclusive: 108%. In the case of `Cc1ccc(N(CC(=O)NCc2cccnc2)S(C)(=O)=O)cc1C`, the binding response (% of control) is reported as inactive: 103%. With `Cc1[nH]c2ccccc2c(=O)c1C(=O)/C=C/c1ccccc1` the binding response (% of control) was inconclusive: 92.2%. With `Cc1[nH]c2ccccc2c1/C=C/c1nc2ccccc2c(=O)n1CCO` the binding response (% of control) was inactive: 99.3%. In the case of `Cc1cc(C(=O)NNc2c(Cl)cccc2Cl)n(C(C)(C)C)n1`, the binding response (% of control) is reported as inconclusive: 84.2%. `O=C(CSc1nc2cc(Cl)c(Cl)cc2[nH]1)c1ccc2c(c1)OCO2` was tested, and the binding response (% of control) was inconclusive: 94.9%. For `Cc1cc2c(NC(=O)Nc3ccc(C(F)(F)F)cc3)cccc2nn1`, the binding response (% of control) was inconclusive: -99.4%. `Cc1cc(C(=O)O)cc(Br)c1N` was tested, and the binding response (% of control) was inconclusive: 90.2%. With `O=S(=O)(N1CCCCC1)N1CCN(c2cc(Cl)ccc2Cl)CC1` the binding response (% of control) was inactive: 103%. `O=C(Nc1nnc(SCc2ccc(F)cc2)s1)c1cccnc1Cl` was tested, and the binding response (% of control) was inconclusive: 97%. For `CC(=O)c1sc(NC(=O)COc2ccccc2)nc1C`, the binding response (% of control) was inconclusive: 126%. With `CCOc1ccc(-n2nnc3c(=O)n(CC(=O)Nc4cc(C)on4)cnc32)cc1` the binding response (% of control) was inconclusive: 107%. With `CC1=NN(c2nc3ccccc3[nH]2)C(=O)C1Cc1ccccc1` (stereo unspecified) the binding response (% of control) was inconclusive: -693%. `Cc1c(C)[n+](=O)c(-c2ccc(Br)cc2)c(C)n1[O-]` was tested, and the binding response (% of control) was inconclusive: 66.8%. `COc1ccc(OCC(=O)NCCCn2ccnc2)cc1` was tested, and the binding response (% of control) was inconclusive: 80.1%. `O=C(Nc1ccc(NC(=O)c2cccs2)cc1)c1ccc2c(c1)OCO2` was tested, and the binding response (% of control) was inconclusive: 89.6%. For `CC(CSc1nnnn1-c1ccccc1)Cn1c(N2CCCC2)nc2c1c(=O)[nH]c(=O)n2C` (stereo unspecified), the binding response (% of control) was inactive: 94.4%. With `CN(CCO)c1ccc(-c2nn(C)c(=O)c3ccccc23)cc1[N+](=O)[O-]` the binding response (% of control) was inconclusive: 107%. In the case of `C#CCOCCOCCOCCNc1nc(N2CCN(C(=O)C([C@@H](C)CC)n3cc(C(N)CO)nn3)CC2)nc(N2CCN(C(=O)[C@H](CCC(=O)O)n3cc(C(N)[C@H](C)CC)nn3)CC2)n1` (stereo partly specified), the binding response (% of control) is reported as inconclusive: 113%. In the case of `CCOC(=O)C1=C(C)N(C)C(=S)N(C)C1c1ccc(OC)cc1` (stereo unspecified), the binding response (% of control) is reported as inconclusive: 113%. In the case of `O=C(COC(=O)c1ccccc1NC(=O)c1ccco1)NC1CC1`, the binding response (% of control) is reported as inconclusive: 82.7%. In the case of `Cc1nc2sc(C(=O)Nc3ccccc3)c(N)c2c(C)c1[N+](=O)[O-]`, the binding response (% of control) is reported as inactive: 93%. With `O=C(NCC1CCCO1)c1csc(Nc2cccc3ccccc23)n1` (stereo unspecified) the binding response (% of control) was inactive: 93.5%. `O=C(NCc1ccncc1)/C(=C/c1cccc([N+](=O)[O-])c1)NC(=O)c1ccccc1` was tested, and the binding response (% of control) was inconclusive: 100%. With `CCN(CC)C(=O)C(=O)N/N=C/c1ccc(C(=O)OC)cc1` the binding response (% of control) was inactive: 101%. With `CC(C)(C)SCCNS(=O)(=O)c1ccc(C#N)cc1` the binding response (% of control) was inconclusive: 88.3%. In the case of `COC(=O)NCC(c1ccco1)N1CCN(c2ccc(OC)cc2)CC1` (stereo unspecified), the binding response (% of control) is reported as inconclusive: 97.8%. In the case of `NC(=O)c1nnn(-c2ccc([N+](=O)[O-])cc2)c1-c1ccccc1`, the binding response (% of control) is reported as inconclusive: 113%. In the case of `CC(Oc1ccc(Cl)cc1)c1ccnn1S(=O)(=O)c1ccccc1` (stereo unspecified), the binding response (% of control) is reported as inactive: 101%. For `S=c1[nH]nc(-c2cc(-c3ccsc3)n[nH]2)n1-c1ccccc1`, the binding response (% of control) was inconclusive: 76.3%. `COc1ccccc1N(CC(O)Cn1ccnc1C)S(=O)(=O)c1ccc(C)cc1` (stereo unspecified) was tested, and the binding response (% of control) was inactive: 100%. For `CCOC(=O)C(c1ccccc1)C(Nc1ccccc1)c1ccccn1` (stereo unspecified), the binding response (% of control) was inconclusive: 189%. With `Cc1ccc(C)c(NC(=S)c2ccc3ccccc3n2)c1` the binding response (% of control) was active: 7.95%. In the case of `CCCCCCCCNC(=O)c1cccnc1SCC(=O)Nc1ccccc1OC`, the binding response (% of control) is reported as inactive: 103%. For `Cc1noc(-c2ccc(C(F)(F)F)cc2)c1NC(=O)Nc1ccc(Cl)cc1`, the binding response (% of control) was inconclusive: 91.8%. `NS(=O)(=O)c1ccc(NC(=S)NC2CCCCC2)cc1` was tested, and the binding response (% of control) was inconclusive: 92.8%. In the case of `CC[n+]1c(/C=C/C=C/N(C(C)=O)c2ccccc2)sc2cc(OC)ccc21`, the binding response (% of control) is reported as active: 155% [activator]. In the case of `COc1ccc(C(=O)NCc2nnc(SCC(=O)Nc3nc4ccccc4s3)o2)cc1OC`, the binding response (% of control) is reported as inactive: 102%. `Cc1ccc(CSCC(=O)NCc2ccc3c(c2)OCO3)cc1` was tested, and the binding response (% of control) was inconclusive: 163%. For `O=[N+]([O-])c1cnc2ccccn12`, the binding response (% of control) was inconclusive: 109%. With `O=C(NCCCn1ccnc1)/C(=C/c1ccco1)NC(=O)c1ccco1` the binding response (% of control) was inconclusive: 83.5%. With `Cc1ccc(OCC(=O)Nc2ccccc2F)cc1C` the binding response (% of control) was inactive: 97.3%. In the case of `C=C1C(=O)C=C[C@]2(C)C[C@@H]3OC(=O)[C@](C)(O)[C@H]3C[C@@H]12`, the binding response (% of control) is reported as inconclusive: 109%. For `O=C(NCCc1ccc(Cl)cc1)c1n[nH]c2ccccc12`, the binding response (% of control) was inconclusive: 91.4%. In the case of `CCN(CC)c1ccc(/C=C2\SC(=O)N(C(C)C)C2=O)o1`, the binding response (% of control) is reported as inconclusive: 13.9%. `CCN(CC)CCn1c2ccccc2c2cnc(N=CN(C)C)c(C#N)c21` was tested, and the binding response (% of control) was inactive: 107%. In the case of `CN(C)CCCNC(=O)c1ccc(=O)[nH]n1`, the binding response (% of control) is reported as inconclusive: 117%. In the case of `Fc1ccccc1Cn1cc(C(=S)N2CCOCC2)c2ccccc21`, the binding response (% of control) is reported as inconclusive: 71.7%. For `O=C1/C(=C/c2coc3ccc(O)cc3c2=O)SC(=S)N1c1ccccc1`, the binding response (% of control) was inconclusive: 68.4%. In the case of `CCOC(=O)N1CCN(c2nc(-c3ccc(OC)cc3)no2)CC1`, the binding response (% of control) is reported as inactive: 103%. In the case of `COc1ccc(C(=O)CSc2[nH]c(=O)cc(C(F)(F)F)c2C#N)cc1`, the binding response (% of control) is reported as inconclusive: 23.6%. `COc1cccc(C(=O)Nc2nnc(-c3ccc(F)cc3)o2)c1` was tested, and the binding response (% of control) was inconclusive: 61%. With `Cc1ccc(F)cc1NC(=O)N1CCCN(C(=O)OC(C)(C)C)CC1` the binding response (% of control) was inconclusive: 46.3%. For `CCO[C@H]1OC(C(N)=O)=C[C@@H](C2CCCCC2)[C@@H]1CCCO`, the binding response (% of control) was inactive: 101%. In the case of `COC(=O)c1cc(Cl)cc(Cl)c1OS(=O)(=O)N(C)C`, the binding response (% of control) is reported as inconclusive: 85.6%. With `CCOc1ccc(Br)cc1S(=O)(=O)Nc1cccc(S(=O)(=O)NC2=NCCC2)c1` the binding response (% of control) was inconclusive: 88.9%. For `CCOC(=O)c1cc(C#N)c(N2CCNCC2)nc1C(F)(F)F`, the binding response (% of control) was inconclusive: 144%. With `O=C(COc1ccc(Cl)cc1Br)NC(=O)NCc1ccccc1` the binding response (% of control) was inactive: 98%. For `COc1ccc(CCNC(=O)c2cc(-c3cc(C)cc(C)c3O)n[nH]2)cc1OC`, the binding response (% of control) was inconclusive: 83.4%. `O=C(NCCc1ccc(Cl)cc1)c1cc2ccccn2n1` was tested, and the binding response (% of control) was inconclusive: 113%. `N#Cc1ncn(-c2ccc(Oc3ccccc3)cc2)c1N` was tested, and the binding response (% of control) was inconclusive: 88.6%. For `Clc1ccc(-c2csc(-c3ccno3)n2)cc1`, the binding response (% of control) was inconclusive: 86.4%. With `CSc1ccc(C#N)cc1NC(=O)c1ccccc1` the binding response (% of control) was inconclusive: 117%. `Cc1oc(-c2ccc(Cl)cc2)cc1C(=O)O` was tested, and the binding response (% of control) was inconclusive: 72.9%. For `Cn1ccnc1C(=O)c1ccc(Cl)c(S(=O)(=O)N2CCOCC2)c1`, the binding response (% of control) was inconclusive: 69.6%. In the case of `COCCNC(=O)CCCn1c(=O)c2cc(OC)c(OC)cc2n(CC(=O)Nc2ccc(C)c(F)c2)c1=O`, the binding response (% of control) is reported as inconclusive: 109%. With `O=c1[nH]c(CN2CCN(c3ccccn3)CC2)nc2c(Br)cc(Br)cc12` the binding response (% of control) was inconclusive: 104%. `COC(=O)C1=C(C)N(C)C(=S)N(C)C1c1ccc(OC)cc1` (stereo unspecified) was tested, and the binding response (% of control) was inconclusive: 99.3%. For `O=C(Cc1cccs1)NCCc1csc(-c2ccccc2)n1`, the binding response (% of control) was inconclusive: 115%. `O=C(Cc1ccccc1)N/N=C/C=C/c1ccccc1[N+](=O)[O-]` was tested, and the binding response (% of control) was inconclusive: 96.8%. For `CC(C)(C)C(=O)NC(=O)Nc1ccccc1C(F)(F)F`, the binding response (% of control) was inconclusive: 121%. `Clc1ccc(Nc2ncnc3c2nnn3Cc2ccccc2)cc1` was tested, and the binding response (% of control) was inconclusive: 89%. `COc1ccccc1Oc1ccc2c(c1)C(=O)N(CC1CCCO1)C2=O` (stereo unspecified) was tested, and the binding response (% of control) was inconclusive: 87.6%. With `O=C(c1ccco1)N1CCN(Cc2cn[nH]c2-c2ccc(F)cc2F)CC1` the binding response (% of control) was inactive: 102%. For `COCCNC(=O)c1cc(Sc2nnc(C)s2)nc2ccccc12`, the binding response (% of control) was inconclusive: -267%. With `O=C(NCc1nc(-c2ccccc2)no1)Nc1ccc(F)cc1` the binding response (% of control) was inconclusive: 95.2%. `COCCNC(=O)CSc1nc(N)c(NC(=O)c2ccccc2F)c(=O)[nH]1` was tested, and the binding response (% of control) was inactive: 94.9%. For `Cc1c2cnn(-c3ccccc3)c(=O)c2c(C)n1CCCC(=O)N1CCN(C2CCCCC2)CC1`, the binding response (% of control) was inconclusive: 77.1%. With `COCCNc1nc(Cl)c(C#N)s1` the binding response (% of control) was inconclusive: 184%.
